According to patent US20120014926A1, “Activation of Precursor Cells for Cell Therapy” (priority 2009, published 2012):
For at least one compound, name, drawing or mass did not settle the structure.

Test system: BMC
Assay: BMC migration towards SDF-1, modified Boyden chamber assay
Format: cell-based, mouse
Details: inhibitor added to upper chamber along with treated BMC; p<0.05
Experimental: BMC migration towards SDF-1 was determined using a modified Boyden chamber assay. BMC were pre-incubated with either PBS or the invented solution for 4 hours at 37 deg.C. and transferred to the upper chamber of inserts in a 24-well plate containing DMEM and 100 ng/ml SDF-1. Migrated cells were counted after 6 hrs incubation at 37° C. Inhibitors AMD3100, LY294002, L-NMMA, and anti-CXCR4 antibody were added to the upper chamber along with BMC.

SMILES: O=c1cc(N2CCOCC2)oc2c(-c3ccccc3)cccc12 [LY294002]
- mobility of the treated BMC on addition of inhibitor: significantly reduced
